# Experimental data: the supplement of paper PMC4604168 (melanoma cell lines)
# This is one part of the list. Repeats are few or missing, and single values can be far off.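 Cells were imaged in 1,536-well plates, and nuclei stained with an antibody against cleaved PARP were counted against all DNA-stained nuclei to give the apoptosis fraction. Screening doses were chosen to leave most cells alive, and resting and induced cleaved-PARP levels differ strongly between cell lines.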
# Test system: C32
# Test: cleaved PARP positive nuclei fraction relative to DMSO control; melanoma cells; higher = more apoptosis
# Conditions: library dose: low library concentration; 72 h
row,SMILES,cleaved PARP positive nuclei fraction [%]
1,"CC(C)(C)c1cnc(CSc2cnc(NC(=O)C3CCNCC3)s2)o1 + Oc1cc(-c2nc(-c3ccccc3)[nH]c2-c2ccncc2)ccc1Cl [L779450] (first compound 0.01 µM, partner dose 0.2 µM)",99.6
2,"Cc1nc(Nc2ncc(C(=O)Nc3c(C)cccc3Cl)s2)cc(N2CCN(CCO)CC2)n1 [dasatanib] + COC(=O)c1sccc1S(=O)(=O)Nc1ccc(Nc2ccccc2)cc1OC [GSK0660] (first compound 0.004 µM, partner dose 1 µM)",71.1
3,"C#Cc1cccc(Nc2ncnc3cc(OCCOC)c(OCCOC)cc23)c1 [erlotinib] + O=C(O)C(=O)Nc1sc2c(c1C(=O)O)CCNC2 [TCS401] (first compound 0.8 µM, partner dose 1.66667 µM)",40.5
4,"Cn1c(Nc2ccc(C(F)(F)F)cc2)nc2cc(Oc3ccnc(-c4ncc(C(F)(F)F)[nH]4)c3)ccc21 + CCCCCCCCCCCC1=C(O)C(=O)C=C(O)C1=O [Embelin] (first compound 0.08 µM, partner dose 1.2 µM)",106
5,"Cn1cncc1[C@@](N)(c1ccc(Cl)cc1)c1ccc2c(c1)c(-c1cccc(Cl)c1)cc(=O)n2C [tipifarnib] + COc1cc2ncnc(Nc3ccc(Oc4ccccc4)cc3)c2cc1OC [SrcI1] (first compound 0.01 µM, partner dose 2 µM)",92.9
6,"C#Cc1cccc(Nc2ncnc3cc(OCCOC)c(OCCOC)cc23)c1 [erlotinib] + COc1cc2ncnc(Nc3ccc(Oc4ccccc4)cc3)c2cc1OC [SrcI1] (first compound 0.8 µM, partner dose 2 µM)",96.9
7,"Nc1cccc2c1CN(C1CCC(=O)NC1=O)C2=O (stereo not drawn) [lenalidomide] + Cn1cc(/C=C2\C(=O)Nc3cccnc32)c2ccccc21 [GW441756] (first compound 1 µM, partner dose 0.4 µM)",121
8,"Cc1nc(Nc2ncc(C(=O)Nc3c(C)cccc3Cl)s2)cc(N2CCN(CCO)CC2)n1 [dasatanib] + c1cc(-c2cnn3cc(-c4ccc(OCCN5CCCCC5)cc4)cnc23)ccn1 [Dorsomorphin] (first compound 0.004 µM, partner dose 0.4 µM)",55.1
9,"Cn1cncc1[C@@](N)(c1ccc(Cl)cc1)c1ccc2c(c1)c(-c1cccc(Cl)c1)cc(=O)n2C [tipifarnib] + O=C(O)C(=O)Nc1sc2c(c1C(=O)O)CCNC2 [TCS401] (first compound 0.01 µM, partner dose 1.66667 µM)",162
10,"Cn1c(Nc2ccc(C(F)(F)F)cc2)nc2cc(Oc3ccnc(-c4ncc(C(F)(F)F)[nH]4)c3)ccc21 + O=C(Nc1ccccc1)c1cc([N+](=O)[O-])ccc1Cl [GW9662] (first compound 0.08 µM, partner dose 2 µM)",143
11,"Cn1cncc1[C@@](N)(c1ccc(Cl)cc1)c1ccc2c(c1)c(-c1cccc(Cl)c1)cc(=O)n2C [tipifarnib] + Oc1nc(-c2ccc(C(F)(F)F)cc2)nc2c1CSCC2 [XAV939] (first compound 0.01 µM, partner dose 2 µM)",53.3
12,"Cn1nnc2c(C(N)=O)ncn2c1=O [temozolomide] + COc1ccc2c(c1)CCC1C2CCC2(C)C(NCCCCCCN3C(=O)C=CC3=O)CCC12 [U73122] (first compound 2 µM, partner dose 0.4 µM)",192

# Test system: CBRC013 (line from a melanoma biopsy)
# Test: as above
# Conditions: library dose: low library concentration; 72 h
row,SMILES,cleaved PARP positive nuclei fraction [%]
1,"OCCn1cc(-c2cnc3nnn(Cc4ccc5ncccc5c4)c3n2)cn1 + Oc1cc(-c2nc(-c3ccccc3)[nH]c2-c2ccncc2)ccc1Cl [L779450] (first compound 1 µM, partner dose 0.2 µM)",65.6
2,"CO[C@@H]1[C@H](N(C)C(=O)c2ccccc2)C[C@H]2O[C@]1(C)n1c3ccccc3c3c4c(c5c6ccccc6n2c5c31)C(=O)NC4 [Midostaurin] + O=C(Nc1ccccc1)c1cc([N+](=O)[O-])ccc1Cl [GW9662] (first compound 0.08 µM, partner dose 2 µM)",288
3,"CC1(C)NC(=O)N(c2ccc([N+](=O)[O-])c(C(F)(F)F)c2)C1=O [nilutamide] + COC(=O)c1sccc1S(=O)(=O)Nc1ccc(Nc2ccccc2)cc1OC [GSK0660] (first compound 1 µM, partner dose 1 µM)",77.1
4,"Cc1nc(Nc2ncc(C(=O)Nc3c(C)cccc3Cl)s2)cc(N2CCN(CCO)CC2)n1 [dasatanib] + Cc1cc([N+](=O)[O-])ccc1NS(=O)(=O)c1cc(Cl)ccc1Cl [FH535] (first compound 0.004 µM, partner dose 1 µM)",58.7
5,"C[C@@H]1CCN(C(=O)CC#N)C[C@@H]1N(C)c1ncnc2[nH]ccc12 + O=C(Nc1ccccc1)c1cc([N+](=O)[O-])ccc1Cl [GW9662] (first compound 1 µM, partner dose 2 µM)",46
6,"C=CCn1c(=O)c2cnc(Nc3ccc(N4CCN(C)CC4)cc3)nc2n1-c1cccc(C(C)(C)O)n1 + O=c1cc(-c2cccc3c2Sc2ccccc2S3)oc(N2CCOCC2)c1 [KU55933] (first compound 0.02 µM, partner dose 1 µM)",52.1
7,"Cc1ccc(NC(=O)c2cccc(N(C)C)c2)cc1NC(=O)c1ccc(O)cc1 + N#Cc1c(O)c2c(-c3ccc(-c4ccccc4O)cc3)csc2[nH]c1=O [A769662] (first compound 2 µM, partner dose 2 µM)",143
8,"Cc1cc(N2CCOCC2)cc2[nH]c(-c3c(NC[C@@H](O)c4cccc(Cl)c4)cc[nH]c3=O)nc12 + O=C(O)C(=O)Nc1sc2c(c1C(=O)O)CCNC2 [TCS401] (first compound 0.2 µM, partner dose 1.66667 µM)",786
9,"C=CCn1c(=O)c2cnc(Nc3ccc(N4CCN(C)CC4)cc3)nc2n1-c1cccc(C(C)(C)O)n1 + CCN(CC)CCCCNc1ncc2cc(-c3cc(OC)cc(OC)c3)c(NC(=O)NC(C)(C)C)nc2n1 [PD173074] (first compound 0.02 µM, partner dose 0.1 µM)",128
10,"Cc1cc(N2CCOCC2)cc2[nH]c(-c3c(NC[C@@H](O)c4cccc(Cl)c4)cc[nH]c3=O)nc12 + O=c1cc(-c2cccc3c2Sc2ccccc2S3)oc(N2CCOCC2)c1 [KU55933] (first compound 0.2 µM, partner dose 1 µM)",419
11,"C#Cc1cccc(Nc2ncnc3cc(OCCOC)c(OCCOC)cc23)c1 [erlotinib] + O=c1cc(-c2cccc3c2Sc2ccccc2S3)oc(N2CCOCC2)c1 [KU55933] (first compound 0.8 µM, partner dose 1 µM)",206
12,"Cn1c(Nc2ccc(C(F)(F)F)cc2)nc2cc(Oc3ccnc(-c4ncc(C(F)(F)F)[nH]4)c3)ccc21 + O=C1NC(=O)/C(=C/c2ccc(-c3ccc(F)cc3O)o2)S1 [AS252424] (first compound 0.08 µM, partner dose 1 µM)",131
13,"NC(=O)Nc1cc(-c2cccc(F)c2)sc1C(=O)N[C@H]1CCCNC1 + CCCCCCCCCCCC1=C(O)C(=O)C=C(O)C1=O [Embelin] (first compound 0.02 µM, partner dose 1.2 µM)",67.4
14,"C=CCn1c(=O)c2cnc(Nc3ccc(N4CCN(C)CC4)cc3)nc2n1-c1cccc(C(C)(C)O)n1 + COc1cc2ncnc(Nc3ccc(Oc4ccccc4)cc3)c2cc1OC [SrcI1] (first compound 0.02 µM, partner dose 2 µM)",92.6
15,"Cn1c(Nc2ccc(C(F)(F)F)cc2)nc2cc(Oc3ccnc(-c4ncc(C(F)(F)F)[nH]4)c3)ccc21 + N#Cc1c(O)c2c(-c3ccc(-c4ccccc4O)cc3)csc2[nH]c1=O [A769662] (first compound 0.08 µM, partner dose 2 µM)",310
16,"Cn1nnc2c(C(N)=O)ncn2c1=O [temozolomide] + COc1cc(N2CCC(N3CCN(C)CC3)CC2)ccc1Nc1ncc(Cl)c(Nc2ccccc2S(=O)(=O)C(C)C)n1 [NVP-TAE684] (first compound 2 µM, partner dose 0.08 µM)",95.8
17,"O=C(CCCCCCC(=O)Nc1ccccc1)NO [vorinostat] + COc1ccc(COc2ccc(Cc3cnc(N)nc3N)cc2OC)cc1 [GW2580] (first compound 0.08 µM, partner dose 1 µM)",138
18,"C#Cc1cccc(Nc2ncnc3cc(OCCOC)c(OCCOC)cc23)c1 [erlotinib] + Oc1cc(-c2nc(-c3ccccc3)[nH]c2-c2ccncc2)ccc1Cl [L779450] (first compound 0.8 µM, partner dose 0.2 µM)",102
19,"C#Cc1cccc(Nc2ncnc3cc(OCCOC)c(OCCOC)cc23)c1 [erlotinib] + N#Cc1c(O)c2c(-c3ccc(-c4ccccc4O)cc3)csc2[nH]c1=O [A769662] (first compound 0.8 µM, partner dose 2 µM)",226
20,"COCC[n+]1c2c(n(Cc3cnccn3)c1C)C(=O)c1ccccc1C2=O + COc1ccc(-c2ccc3c(N4CCOCC4)nc(N4C[C@@H](C)O[C@@H](C)C4)nc3n2)cc1CO [KU0063794] (first compound 0.0004 µM, partner dose 0.02 µM)",112
21,"COc1cc(Nc2ncc(F)c(Nc3ccc4c(n3)NC(=O)C(C)(C)O4)n2)cc(OC)c1OC [Tamatinib] + O=C1NC(=O)/C(=C/c2ccc(-c3ccc(F)cc3O)o2)S1 [AS252424] (first compound 0.4 µM, partner dose 1 µM)",76.5

# Look-ups from above.
# Cc1ccc(NC(=O)c2cccc(N(C)C)c2)cc1NC(=O)c1ccc(O)cc1 + N#Cc1c(O)c2c(-c3ccc(-c4ccccc4O)cc3)csc2[nH]c1=O [A769662] (first compound 2 µM, partner dose 2 µM) | cleaved PARP positive nuclei fraction [%]: 143
# C=CCn1c(=O)c2cnc(Nc3ccc(N4CCN(C)CC4)cc3)nc2n1-c1cccc(C(C)(C)O)n1 + O=c1cc(-c2cccc3c2Sc2ccccc2S3)oc(N2CCOCC2)c1 [KU55933] (first compound 0.02 µM, partner dose 1 µM) | cleaved PARP positive nuclei fraction [%]: 52.1
